From patent US10633353B2, “Polymerizable compound, composition, polymer, optically anisotropic body, liquid crystal display element, and organic EL display” (DIC Corporation, priority 2014, dated 2020)

Assay: Optical property of the optical film (retardation, Re(450)/Re(550))
Settings: Re(450)/Re(550) of the optical film, RET-100
In the case of C=CC(=O)OCCCCCCOc1ccc(C(=O)OCCc2ccc(OC(=O)c3ccc(OCCCCCCOC(=O)C=C)cc3)c(/C=N/Nc3nc4cc([N+](=O)[O-])ccc4s3)c2)cc1 [1-c-30], the Optical property is reported as “A (Re(450)/Re(550)≤0.85)”. For C=CC(=O)OCCCOc1ccc(C(=O)OCCc2ccc(OC(=O)c3ccc(OCCCOC(=O)C=C)cc3)c(/C=N/Nc3nc4cc(CCC)ccc4s3)c2)cc1 [1-c-26], the Optical property was “A (Re(450)/Re(550)≤0.85)”. With C=CC(=O)OCCCOc1ccc(C(=O)OCCc2ccc(OC(=O)c3ccc(OCCCOC(=O)C=C)cc3)c(/C=N/Nc3nc4cc([N+](=O)[O-])ccc4s3)c2)cc1 [1-c-23] the Optical property was “A (Re(450)/Re(550)≤0.85)”. In the case of C=CC(=O)OCCCCOC(=O)C1CCC(C(=O)OC2CCC(C(=O)Oc3ccc(OC(=O)C4CCC(OC(=O)C5CCC(C(=O)OCCCCOC(=O)C=C)CC5)CC4)c(/C=N/N(C)c4nc5ccccc5s4)c3)CC2)CC1 (stereo not drawn) [1-f-103], the Optical property is reported as “A (Re(450)/Re(550)≤0.85)”. With C=CC(=O)OCCCOc1ccc(OC(=O)C2CCC(COc3ccc(OCC4CCC(C(=O)Oc5ccc(OCCCOC(=O)C=C)cc5)CC4)c(/C=N/Nc4nc5ccccc5s4)c3)CC2)cc1 (stereo not drawn) [1-cm-89] the Optical property was “A (Re(450)/Re(550)≤0.85)”. With C=CC(=O)OCCCOc1ccc(/C=C/C(=O)Oc2ccc(OC(=O)/C=C/c3ccc(OCCCOC(=O)C=C)c(OC)c3)c(/C=N/Nc3nc4ccccc4s3)c2)cc1OC [1-c-46] the Optical property was “A (Re(450)/Re(550)≤0.85)”. In the case of C=CC(=O)OCCCCOC(=O)/C=C/c1ccc(CCC(=O)Oc2ccc(OC(=O)CCc3ccc(/C=C/C(=O)OCCCCOC(=O)C=C)cc3)c(/C=N/Nc3nc4ccccc4s3)c2)cc1 [1-cj-59], the Optical property is reported as “A (Re(450)/Re(550)≤0.85)”. For C=CC(=O)Oc1ccc(C(=O)OCCc2ccc(CCOC(=O)c3ccc(OC(=O)C=C)cc3)c(/C=N/Nc3nc4ccccc4s3)c2)cc1 [1-cg-37], the Optical property was “A (Re(450)/Re(550)≤0.85)”. For C=CC(=O)OCCCCCCOc1ccc(OC(=O)C2CCC(COc3ccc(OCC4CCC(C(=O)Oc5ccc(OCCCCCCOC(=O)C=C)cc5)CC4)c(/C=N/N(CCOCCOC)c4nc5ccccc5s4)c3)CC2)cc1 (stereo not drawn) [1-cmn-91], the Optical property was “A (Re(450)/Re(550)≤0.85)”. With C=CC(=O)OCCCOc1ccc(/C=C/C(=O)Oc2ccc(OC(=O)/C=C/c3ccc(OCCCOC(=O)C=C)c(Cl)c3)c(/C=N/Nc3nc4ccccc4s3)c2)cc1Cl [1-c-47] the Optical property was “A (Re(450)/Re(550)≤0.85)”. For C=CC(=O)OCCCCCCOc1ccc(C(=O)OCCc2ccc(OC(=O)c3ccc(OCCCCCCOC(=O)C=C)cc3)c(/C=N/Nc3nc(-c4ccc5ccccc5c4)cs3)c2)cc1 [1-c-34], the Optical property was “A (Re(450)/Re(550)≤0.85)”. With C=CC(=O)OCCCOc1ccc(C#Cc2ccc(C#Cc3ccc(OCCCOC(=O)C=C)cc3)c(/C=N/Nc3nc4ccccc4s3)c2)cc1 [1-c-67] the Optical property was “A (Re(450)/Re(550)≤0.85)”. For C=CC(=O)OCCCOC(=O)/C=C/c1ccc(C(=O)Oc2ccc(OC(=O)c3ccc(/C=C/C(=O)OCCCOC(=O)C=C)cc3)c(/C=N/Nc3nc4ccccc4s3)c2)cc1 [1-j-61], the Optical property was “A (Re(450)/Re(550)≤0.85)”. For C=C(C)C(=O)OCCCOc1ccc(C(=O)OCCc2ccc(OC(=O)c3ccc(OCCCOC(=O)C(=C)C)cc3)c(/C=N/Nc3nc4ccccc4s3)c2)cc1 [1-c-5], the Optical property was “A (Re(450)/Re(550)≤0.85)”. In the case of C=CC(=O)OCCCCOC(=O)C1CCC(C(=O)OC2CCC(C(=O)Oc3ccc(OC(=O)C4CCC(OC(=O)C5CCC(C(=O)OCCCCOC(=O)C=C)CC5)CC4)c(/C=N/N(CC)c4nc5ccccc5s4)c3)CC2)CC1 (stereo not drawn) [1-f-102], the Optical property is reported as “A (Re(450)/Re(550)≤0.85)”. With C=CC(=O)OCCCOc1ccc(C(=O)OCCc2ccc(OC(=O)c3ccc(OCCCOC(=O)C=C)cc3)c(/C=N/Nc3nc4cc(Cl)ccc4s3)c2)cc1 [1-c-24] the Optical property was “A (Re(450)/Re(550)≤0.85)”. With C=CC(=O)OCCCCCCOc1ccc(OC(=O)C2CCC(COc3ccc(OCC4CCC(C(=O)Oc5ccc(OCCCCCCOC(=O)C=C)cc5)CC4)c(/C=N/N(CCOCCOCCOC(=O)C=C)c4nc5ccccc5s4)c3)CC2)cc1 (stereo not drawn) [1-cmn-94] the Optical property was “A (Re(450)/Re(550)≤0.85)”. In the case of C=CC(=O)OCCCCCCOc1ccc(OC(=O)C2CCC(C(=O)OCCc3ccc(OC(=O)C4CCC(C(=O)Oc5ccc(OCCCCCCOC(=O)C=C)cc5)CC4)c(/C=N/N(CCCCCC)c4nc5ccccc5s4)c3)CC2)cc1 (stereo not drawn) [1-cmn-82], the Optical property is reported as “A (Re(450)/Re(550)≤0.85)”. For C=CC(=O)OCCCCCCOc1ccc(C(=O)OCCc2ccc(OC(=O)c3ccc(OCCCCCCOC(=O)C=C)cc3)c(/C=N/Nc3nc4ccc5ccccc5c4s3)c2)cc1 [1-c-33], the Optical property was “A (Re(450)/Re(550)≤0.85)”. In the case of C=CC(=O)OCCCCOC(=O)C1CCC(C(=O)OC2CCC(C(=O)Oc3ccc(OC(=O)C4CCC(OC(=O)C5CCC(C(=O)OCCCCOC(=O)C=C)CC5)CC4)c(/C=N/Nc4nc5ccc6ccccc6c5s4)c3)CC2)CC1 (stereo not drawn) [1-f-22], the Optical property is reported as “A (Re(450)/Re(550)≤0.85)”. For C=CC(=O)OCCOCCOCCOc1ccc(OC(=O)C2CCC(COc3ccc(OCC4CCC(C(=O)Oc5ccc(OCCOCCOCCOC(=O)C=C)cc5)CC4)c(/C=N/Nc4nc5ccccc5s4)c3)CC2)cc1 (stereo not drawn) [1-cm-105], the Optical property was “A (Re(450)/Re(550)≤0.85)”. For C=CC(=O)OCCCCOc1ccc(/C=C/C(=O)Oc2ccc(OC(=O)/C=C/c3ccc(OCCCCOC(=O)C=C)cc3)c(/C=N/Nc3nc4ccccc4s3)c2)cc1 [1-c-45], the Optical property was “A (Re(450)/Re(550)≤0.85)”. In the case of C=CC(=O)OCCCCOc1ccc(C(=O)OCCc2ccc(OC(=O)c3ccc(OCCCCOC(=O)C=C)cc3)c(/C=N/N(CCCCCC)c3nc4ccc5ccccc5c4s3)c2)cc1 [1-c-40], the Optical property is reported as “A (Re(450)/Re(550)≤0.85)”. In the case of C=CC(=O)OCCCCOc1ccc(OC(=O)C2CCC(C(=O)OCCc3ccc(OC(=O)C4CCC(C(=O)Oc5ccc(OCCCCOC(=O)C=C)cc5)CC4)c(C=NNc4nc5ccccc5s4)c3)CC2)cc1 (stereo not drawn) [1-c-14], the Optical property is reported as “A (Re(450)/Re(550)≤0.85)”. With C=CC(=O)OCCCCCCOc1ccc(OCCOc2ccc(OCCOc3ccc(OCCCCCCOC(=O)C=C)cc3)c(/C=N/Nc3nc4ccccc4s3)c2)cc1 [1-c-80] the Optical property was “A (Re(450)/Re(550)≤0.85)”. With C=CC(=O)Oc1ccc(C(=O)OCCc2ccc(OC(=O)c3ccc(OC(=O)C=C)cc3)c(/C=N/Nc3nc4ccccc4s3)c2)cc1 [1-cg-36] the Optical property was “A (Re(450)/Re(550)≤0.85)”. In the case of C=CC(=O)OCCCCCCOc1ccc(OC(=O)C2CCC(COc3ccc(OCC4CCC(C(=O)Oc5ccc(OCCCCCCOC(=O)C=C)cc5)CC4)c(/C=N/N(CCOC(=O)C=C)c4nc5ccccc5s4)c3)CC2)cc1 (stereo not drawn) [1-cmn-93], the Optical property is reported as “A (Re(450)/Re(550)≤0.85)”. In the case of C=CC(=O)OCCCOc1ccc(OC(=O)C2CCC(COc3ccc(OCC4CCC(C(=O)Oc5ccc(OCCCOC(=O)C=C)cc5)CC4)c(/C=N/N(CCOCCOC)c4nc5ccccc5s4)c3)CC2)cc1 (stereo not drawn) [1-cmn-92], the Optical property is reported as “A (Re(450)/Re(550)≤0.85)”. With C=CC(=O)OCCCOc1ccc(OC(=O)C2CCC(C(=O)OCCc3ccc(OC(=O)C4CCC(C(=O)Oc5ccc(OCCCOC(=O)C=C)cc5)CC4)c(C=NNc4nc5ccccc5s4)c3)CC2)cc1 (stereo not drawn) [1-c-13] the Optical property was “A (Re(450)/Re(550)≤0.85)”. For C=CC(=O)OCCCOc1ccc(C(=O)Oc2ccc(OCCCOC(=O)C=C)cc2/C=N/Nc2nc3ccccc3s2)cc1 [1-e-69], the Optical property was “A (Re(450)/Re(550)≤0.85)”. With C=CC(=O)OCCCCCCOC1CCC(C(=O)Oc2ccc(OC(=O)C3CCC(OCCCCCCOC(=O)C=C)CC3)c(/C=N/N(c3ccccc3)c3ccccc3)c2)CC1 (stereo not drawn) [1-f-21] the Optical property was “A (Re(450)/Re(550)≤0.85)”. For C=CC(=O)OCCCCOC1CCC(C(=O)Oc2ccc(OC(=O)C3CCC(OCCCCOC(=O)C=C)CC3)c(/C=N/Nc3nc4ccccc4s3)c2)CC1 (stereo not drawn) [1-f-18], the Optical property was “A (Re(450)/Re(550)≤0.85)”. In the case of C=CC(=O)OCCCCCCOc1ccc(OC(=O)C2CCC(C(=O)OCCc3ccc(OC(=O)C4CCC(C(=O)Oc5ccc(OCCCCCCOC(=O)C=C)cc5)CC4)c(/C=N/Nc4cccc5ccccc45)c3)CC2)cc1 (stereo not drawn) [1-c-42], the Optical property is reported as “A (Re(450)/Re(550)≤0.85)”. With C=C(C)C(=O)OCCCOc1ccc(/C=C/C(=O)Oc2ccc(OC(=O)/C=C/c3ccc(OCCCOC(=O)C(=C)C)cc3)c(/C=N/Nc3nc4ccccc4s3)c2)cc1 [1-c-48] the Optical property was “A (Re(450)/Re(550)≤0.85)”. For C=CC(=O)OCCCCOc1ccc(C(=O)OCCc2ccc(OC(=O)c3ccc(OCCCCOC(=O)C=C)cc3)c(/C=N/Nc3nc4ccccc4s3)c2)cc1 [1-c-3], the Optical property was “A (Re(450)/Re(550)≤0.85)”. With C=CC(=O)OCCCCOC(=O)/C=C/c1ccc(C(=O)Oc2ccc(OC(=O)c3ccc(/C=C/C(=O)OCCCCOC(=O)C=C)cc3)c(/C=N/Nc3nc4ccc5ccccc5c4s3)c2)cc1 [1-j-65] the Optical property was “A (Re(450)/Re(550)≤0.85)”. For C=CC(=O)OCCCOc1ccc(CCC(=O)Oc2ccc(OC(=O)CCc3ccc(OCCCOC(=O)C=C)c(OC)c3)c(/C=N/Nc3nc4ccccc4s3)c2)cc1OC [1-c-52], the Optical property was “A (Re(450)/Re(550)≤0.85)”. For C=CC(=O)OCCCCCCOc1ccc(C(=O)Oc2ccc(OCCCCCCOC(=O)C=C)cc2/C=N/Nc2nc3ccccc3s2)cc1 [1-e-70], the Optical property was “A (Re(450)/Re(550)≤0.85)”. In the case of C=CC(=O)OCCCCCCOC(=O)/C=C/c1ccc(C(=O)Oc2ccc(OC(=O)c3ccc(/C=C/C(=O)OCCCCCCOC(=O)C=C)cc3)c(/C=N/Nc3nc4ccccc4s3)c2)cc1 [1-j-62], the Optical property is reported as “A (Re(450)/Re(550)≤0.85)”. In the case of C=CC(=O)OCCCCOC(=O)C1CCC(C(=O)OC2CCC(C(=O)Oc3ccc(OC(=O)C4CCC(OC(=O)C5CCC(C(=O)OCCCCOC(=O)C=C)CC5)CC4)c(/C=N/N(CCCCCC)c4nc5ccccc5s4)c3)CC2)CC1 (stereo not drawn) [1-f-97], the Optical property is reported as “A (Re(450)/Re(550)≤0.85)”. For C=CC(=O)OCCCCCOc1ccc(C(=O)OCCc2ccc(CCOC(=O)c3ccc(OCCCCCOC(=O)C=C)cc3)c(/C=N/Nc3nc4ccccc4s3)c2)cc1 [1-c-11], the Optical property was “A (Re(450)/Re(550)≤0.85)”. With C=CC(=O)Oc1ccc(C(=O)Oc2ccc(OC(=O)c3ccc(OC(=O)C=C)cc3)c(/C=N/Nc3nc4ccccc4s3)c2)cc1 [1-g-35] the Optical property was “B (0.85<Re(450)/Re(550)≤0.95)”. For C=CC(=O)OCCCCCCOc1ccc(C#Cc2ccc(C#Cc3ccc(OCCCCCCOC(=O)C=C)cc3)c(/C=N/Nc3nc4ccccc4s3)c2)cc1 [1-c-68], the Optical property was “A (Re(450)/Re(550)≤0.85)”. In the case of C=C(C)C(=O)OCCCCOc1ccc(C(=O)OCCc2ccc(OC(=O)c3ccc(OCCCCOC(=O)C(=C)C)cc3)c(/C=N/Nc3nc4ccccc4s3)c2)cc1 [1-c-6], the Optical property is reported as “A (Re(450)/Re(550)≤0.85)”. With C=CC(=O)OCCCOc1ccc(C(=O)OCCc2ccc(OC(=O)c3ccc(OCCCOC(=O)C=C)cc3)c(/C=N/Nc3nc4ccccc4s3)c2)cc1 [1-c-2] the Optical property was “A (Re(450)/Re(550)≤0.85)”.
